The values that follow come from PMC10470785.

Amino acid sequences for entries named in this document (tags omitted).
UniProt P62820: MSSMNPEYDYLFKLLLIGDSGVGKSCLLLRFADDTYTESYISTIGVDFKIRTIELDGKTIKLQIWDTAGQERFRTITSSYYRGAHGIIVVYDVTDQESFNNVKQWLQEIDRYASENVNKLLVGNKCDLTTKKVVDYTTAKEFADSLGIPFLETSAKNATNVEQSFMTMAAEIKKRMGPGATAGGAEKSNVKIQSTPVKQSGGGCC
UniProt Q15286: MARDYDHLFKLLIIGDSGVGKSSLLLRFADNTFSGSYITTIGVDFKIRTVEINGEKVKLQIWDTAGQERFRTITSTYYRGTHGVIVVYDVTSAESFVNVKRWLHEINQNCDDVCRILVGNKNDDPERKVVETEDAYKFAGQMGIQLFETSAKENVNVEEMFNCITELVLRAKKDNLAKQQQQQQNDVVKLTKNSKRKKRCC
UniProt P20338: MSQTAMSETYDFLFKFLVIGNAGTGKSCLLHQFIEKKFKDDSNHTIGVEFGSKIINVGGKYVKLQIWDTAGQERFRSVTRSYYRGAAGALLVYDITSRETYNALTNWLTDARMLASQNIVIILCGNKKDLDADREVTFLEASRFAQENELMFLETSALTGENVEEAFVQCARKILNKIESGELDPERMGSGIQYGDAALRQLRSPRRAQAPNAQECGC

What all share (assay): co-IP; HeLa cells infected with strains expressing CpoS-FLAG (ortholog or variant) and transfected with EGFP-Rab plasmids; CpoS-FLAG precipitated from lysates at 26 hpi with ANTI-FLAG M2 magnetic beads; western blot
The target of experiment [1] is CpoS(D)-FLAG (C. trachomatis serovar D) (UniProt O84232).
Experiment [2] has as its target CpoS(L2-CC2*)-FLAG (C. trachomatis serovar L2).
The target of experiment [3] is CpoS(L2Δ60)-FLAG (C. trachomatis serovar L2).
The target in experiment [4] is CpoS(L2-CC1*)-FLAG (C. trachomatis serovar L2).

These are yes or no findings as the source states them, for the method shown. Binding seen in cells or lysates may run through a third protein. For part of these data: Binding can be weak; no strength is given.

Take EGFP-Rab1A (from UniProt P62820 1-205): the binding result in experiment [1] is recorded as “binds”; in experiment [2], “binds”; in experiment [3], “no binding”; in experiment [4], “no binding”.

For the substance EGFP-Rab35 (from UniProt Q15286 1-201), the binding entry is recorded as “binds” in experiment [1], “binds” in experiment [2], “binds” in experiment [3] and “no binding” in experiment [4].

For EGFP-Rab4A (from UniProt P20338 1-218), the binding result in experiment [1] is reported as “binds”; in experiment [2] it was “binds”; in experiment [3], “no binding”; in experiment [4], “no binding”.
